According to the supplement of paper PMC10849652:
The other results are listed elsewhere or left out.

By UniProt entry, the sequences of proteins in these tests, tags left out. Where a name states a change or a piece, a line headed by the entry shows the natural chain unless it says otherwise.
UniProt P48444: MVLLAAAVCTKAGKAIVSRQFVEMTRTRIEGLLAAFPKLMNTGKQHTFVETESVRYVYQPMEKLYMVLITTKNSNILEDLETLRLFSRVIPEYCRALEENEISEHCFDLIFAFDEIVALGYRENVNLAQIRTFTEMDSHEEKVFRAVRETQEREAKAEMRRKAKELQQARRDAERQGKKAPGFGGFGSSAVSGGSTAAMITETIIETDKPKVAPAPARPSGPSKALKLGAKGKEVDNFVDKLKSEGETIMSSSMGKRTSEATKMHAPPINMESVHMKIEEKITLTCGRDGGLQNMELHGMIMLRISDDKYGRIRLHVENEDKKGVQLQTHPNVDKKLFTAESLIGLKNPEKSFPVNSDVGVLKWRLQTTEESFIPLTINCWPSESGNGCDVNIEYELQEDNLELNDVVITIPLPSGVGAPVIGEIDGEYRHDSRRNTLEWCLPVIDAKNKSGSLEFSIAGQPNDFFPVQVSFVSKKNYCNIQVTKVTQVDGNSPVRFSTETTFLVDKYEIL
UniProt Q9BZZ5: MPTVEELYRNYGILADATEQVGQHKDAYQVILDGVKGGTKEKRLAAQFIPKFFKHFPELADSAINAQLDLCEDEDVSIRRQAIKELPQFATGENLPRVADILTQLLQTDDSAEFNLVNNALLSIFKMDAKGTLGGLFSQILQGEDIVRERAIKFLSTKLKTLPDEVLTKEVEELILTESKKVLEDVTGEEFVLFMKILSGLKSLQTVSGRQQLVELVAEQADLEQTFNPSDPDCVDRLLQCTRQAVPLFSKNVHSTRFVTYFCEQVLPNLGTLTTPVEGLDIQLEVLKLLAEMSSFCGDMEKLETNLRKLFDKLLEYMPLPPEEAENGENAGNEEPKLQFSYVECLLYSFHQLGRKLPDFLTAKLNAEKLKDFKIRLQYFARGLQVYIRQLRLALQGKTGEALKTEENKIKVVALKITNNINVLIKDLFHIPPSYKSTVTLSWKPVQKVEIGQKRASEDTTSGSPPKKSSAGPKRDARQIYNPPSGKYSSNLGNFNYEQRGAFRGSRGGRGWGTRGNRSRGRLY
UniProt Q8N2F6: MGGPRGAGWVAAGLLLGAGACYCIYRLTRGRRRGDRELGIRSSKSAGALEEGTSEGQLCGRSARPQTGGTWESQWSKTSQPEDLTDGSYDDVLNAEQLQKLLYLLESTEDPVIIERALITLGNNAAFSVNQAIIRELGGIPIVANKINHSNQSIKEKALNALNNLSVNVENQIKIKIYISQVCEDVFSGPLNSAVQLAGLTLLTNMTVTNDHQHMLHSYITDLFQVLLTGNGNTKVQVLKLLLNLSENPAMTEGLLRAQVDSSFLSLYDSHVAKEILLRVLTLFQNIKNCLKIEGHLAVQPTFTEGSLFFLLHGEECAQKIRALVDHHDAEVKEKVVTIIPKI
UniProt P36405: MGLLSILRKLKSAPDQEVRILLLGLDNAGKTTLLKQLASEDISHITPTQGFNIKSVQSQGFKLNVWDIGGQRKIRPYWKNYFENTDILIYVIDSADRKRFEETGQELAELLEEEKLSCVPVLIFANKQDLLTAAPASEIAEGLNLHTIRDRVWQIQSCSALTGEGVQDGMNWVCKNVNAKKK
UniProt Q9ULH1: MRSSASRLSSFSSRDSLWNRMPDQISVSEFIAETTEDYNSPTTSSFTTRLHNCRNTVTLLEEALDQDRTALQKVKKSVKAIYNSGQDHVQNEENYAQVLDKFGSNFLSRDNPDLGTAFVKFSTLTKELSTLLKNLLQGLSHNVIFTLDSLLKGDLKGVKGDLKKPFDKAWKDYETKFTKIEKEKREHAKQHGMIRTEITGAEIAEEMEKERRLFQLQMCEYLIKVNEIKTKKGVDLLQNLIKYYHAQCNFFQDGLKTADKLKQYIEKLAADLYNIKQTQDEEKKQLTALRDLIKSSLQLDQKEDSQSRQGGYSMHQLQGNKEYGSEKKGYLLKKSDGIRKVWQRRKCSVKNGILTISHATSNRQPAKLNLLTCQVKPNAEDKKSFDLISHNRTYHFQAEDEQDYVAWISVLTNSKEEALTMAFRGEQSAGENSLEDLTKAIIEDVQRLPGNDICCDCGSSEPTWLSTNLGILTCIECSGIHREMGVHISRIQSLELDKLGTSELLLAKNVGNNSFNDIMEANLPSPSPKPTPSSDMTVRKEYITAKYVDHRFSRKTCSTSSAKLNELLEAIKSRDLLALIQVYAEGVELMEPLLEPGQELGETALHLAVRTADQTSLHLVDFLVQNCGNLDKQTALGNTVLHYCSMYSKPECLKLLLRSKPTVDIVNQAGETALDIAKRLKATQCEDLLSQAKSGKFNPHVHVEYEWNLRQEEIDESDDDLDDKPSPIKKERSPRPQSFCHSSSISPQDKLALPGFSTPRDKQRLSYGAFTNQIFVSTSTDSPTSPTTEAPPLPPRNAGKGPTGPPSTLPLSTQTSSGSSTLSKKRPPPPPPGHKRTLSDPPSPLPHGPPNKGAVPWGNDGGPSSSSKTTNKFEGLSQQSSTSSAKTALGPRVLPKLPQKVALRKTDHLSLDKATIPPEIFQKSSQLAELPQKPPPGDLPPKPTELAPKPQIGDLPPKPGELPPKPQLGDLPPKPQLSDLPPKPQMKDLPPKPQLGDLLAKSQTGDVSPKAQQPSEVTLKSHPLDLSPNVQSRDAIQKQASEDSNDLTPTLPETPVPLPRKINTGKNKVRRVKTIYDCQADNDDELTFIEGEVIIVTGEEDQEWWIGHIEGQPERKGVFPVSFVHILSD
UniProt Q8N392: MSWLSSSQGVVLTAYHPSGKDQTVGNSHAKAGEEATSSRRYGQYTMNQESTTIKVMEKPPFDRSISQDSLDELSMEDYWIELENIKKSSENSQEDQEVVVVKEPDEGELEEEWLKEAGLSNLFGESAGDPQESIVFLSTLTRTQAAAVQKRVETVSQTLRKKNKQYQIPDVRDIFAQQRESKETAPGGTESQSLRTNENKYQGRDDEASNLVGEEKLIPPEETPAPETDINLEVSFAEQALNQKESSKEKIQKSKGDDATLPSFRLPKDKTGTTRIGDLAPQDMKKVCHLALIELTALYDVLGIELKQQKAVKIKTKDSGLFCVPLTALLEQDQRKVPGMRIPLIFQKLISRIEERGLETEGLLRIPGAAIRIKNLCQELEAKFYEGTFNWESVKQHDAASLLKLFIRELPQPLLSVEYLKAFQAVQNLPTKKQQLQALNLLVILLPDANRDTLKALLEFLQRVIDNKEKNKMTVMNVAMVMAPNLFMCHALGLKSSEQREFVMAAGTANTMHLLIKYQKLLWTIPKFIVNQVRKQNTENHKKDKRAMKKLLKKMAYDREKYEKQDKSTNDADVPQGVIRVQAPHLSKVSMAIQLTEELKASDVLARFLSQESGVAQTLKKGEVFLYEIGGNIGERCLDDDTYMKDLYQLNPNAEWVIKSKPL
UniProt O14497, whole entry, looked up: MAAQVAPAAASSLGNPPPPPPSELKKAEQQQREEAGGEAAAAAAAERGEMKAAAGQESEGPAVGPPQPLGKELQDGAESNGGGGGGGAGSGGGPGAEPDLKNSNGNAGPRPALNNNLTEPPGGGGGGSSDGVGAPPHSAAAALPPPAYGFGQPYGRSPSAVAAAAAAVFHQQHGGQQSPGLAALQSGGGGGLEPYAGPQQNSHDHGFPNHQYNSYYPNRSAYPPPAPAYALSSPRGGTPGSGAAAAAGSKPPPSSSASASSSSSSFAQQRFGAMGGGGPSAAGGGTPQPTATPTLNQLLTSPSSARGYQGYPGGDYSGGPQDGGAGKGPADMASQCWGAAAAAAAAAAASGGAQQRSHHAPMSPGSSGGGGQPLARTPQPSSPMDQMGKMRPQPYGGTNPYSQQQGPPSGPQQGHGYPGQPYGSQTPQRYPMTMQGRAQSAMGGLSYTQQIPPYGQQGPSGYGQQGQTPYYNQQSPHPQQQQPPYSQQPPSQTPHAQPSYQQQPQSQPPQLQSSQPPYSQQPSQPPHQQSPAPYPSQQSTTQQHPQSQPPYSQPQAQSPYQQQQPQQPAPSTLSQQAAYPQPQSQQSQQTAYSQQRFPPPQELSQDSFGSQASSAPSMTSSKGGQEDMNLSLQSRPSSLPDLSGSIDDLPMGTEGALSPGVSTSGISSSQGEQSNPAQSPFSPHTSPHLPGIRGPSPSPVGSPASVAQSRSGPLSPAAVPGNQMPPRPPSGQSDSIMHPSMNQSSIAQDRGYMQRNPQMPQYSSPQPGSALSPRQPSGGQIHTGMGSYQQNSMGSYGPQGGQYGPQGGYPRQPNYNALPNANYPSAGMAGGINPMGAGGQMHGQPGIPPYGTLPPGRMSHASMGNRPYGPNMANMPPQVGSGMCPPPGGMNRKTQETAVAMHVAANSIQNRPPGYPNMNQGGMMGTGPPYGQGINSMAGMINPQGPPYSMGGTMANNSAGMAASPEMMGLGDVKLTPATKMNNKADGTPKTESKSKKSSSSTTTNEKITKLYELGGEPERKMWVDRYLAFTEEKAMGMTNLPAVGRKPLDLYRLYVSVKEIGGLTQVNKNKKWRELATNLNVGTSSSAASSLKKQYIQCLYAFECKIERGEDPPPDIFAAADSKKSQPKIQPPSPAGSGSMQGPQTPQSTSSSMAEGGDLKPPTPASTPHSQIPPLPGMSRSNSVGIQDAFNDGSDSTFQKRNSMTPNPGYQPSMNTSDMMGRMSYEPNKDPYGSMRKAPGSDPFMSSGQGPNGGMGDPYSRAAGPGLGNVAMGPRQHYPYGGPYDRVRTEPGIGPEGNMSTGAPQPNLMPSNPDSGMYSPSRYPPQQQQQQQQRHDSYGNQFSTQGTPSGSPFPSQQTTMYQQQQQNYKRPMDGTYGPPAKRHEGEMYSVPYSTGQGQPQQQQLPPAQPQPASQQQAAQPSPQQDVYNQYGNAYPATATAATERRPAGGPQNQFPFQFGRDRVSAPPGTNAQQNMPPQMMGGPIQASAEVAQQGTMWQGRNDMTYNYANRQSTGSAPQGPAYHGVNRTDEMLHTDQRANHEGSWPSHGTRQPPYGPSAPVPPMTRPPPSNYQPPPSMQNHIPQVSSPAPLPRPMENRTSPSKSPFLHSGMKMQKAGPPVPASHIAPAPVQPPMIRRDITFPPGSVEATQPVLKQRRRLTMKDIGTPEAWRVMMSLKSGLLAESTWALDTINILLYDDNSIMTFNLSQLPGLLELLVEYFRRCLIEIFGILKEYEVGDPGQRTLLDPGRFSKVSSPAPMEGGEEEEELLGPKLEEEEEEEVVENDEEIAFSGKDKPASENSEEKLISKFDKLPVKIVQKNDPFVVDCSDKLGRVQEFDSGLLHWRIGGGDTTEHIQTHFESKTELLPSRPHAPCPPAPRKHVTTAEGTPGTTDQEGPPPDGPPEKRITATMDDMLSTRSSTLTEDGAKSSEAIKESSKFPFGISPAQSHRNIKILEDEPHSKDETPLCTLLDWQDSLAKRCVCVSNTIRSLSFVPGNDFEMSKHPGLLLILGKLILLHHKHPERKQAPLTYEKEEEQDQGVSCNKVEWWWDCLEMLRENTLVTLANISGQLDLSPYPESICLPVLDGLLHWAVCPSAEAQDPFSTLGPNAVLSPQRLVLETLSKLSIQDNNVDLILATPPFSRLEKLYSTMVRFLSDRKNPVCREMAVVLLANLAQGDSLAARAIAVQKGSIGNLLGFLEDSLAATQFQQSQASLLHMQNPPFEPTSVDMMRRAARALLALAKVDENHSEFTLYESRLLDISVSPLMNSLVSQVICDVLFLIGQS
UniProt P02654: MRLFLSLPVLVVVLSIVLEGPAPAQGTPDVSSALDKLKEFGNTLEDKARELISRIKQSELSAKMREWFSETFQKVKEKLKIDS
UniProt Q13795: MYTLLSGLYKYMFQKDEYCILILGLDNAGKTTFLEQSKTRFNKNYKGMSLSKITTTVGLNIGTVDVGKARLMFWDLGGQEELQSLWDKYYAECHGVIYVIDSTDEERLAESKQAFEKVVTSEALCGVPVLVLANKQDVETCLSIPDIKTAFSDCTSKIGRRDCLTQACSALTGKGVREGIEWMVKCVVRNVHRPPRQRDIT
UniProt P53367: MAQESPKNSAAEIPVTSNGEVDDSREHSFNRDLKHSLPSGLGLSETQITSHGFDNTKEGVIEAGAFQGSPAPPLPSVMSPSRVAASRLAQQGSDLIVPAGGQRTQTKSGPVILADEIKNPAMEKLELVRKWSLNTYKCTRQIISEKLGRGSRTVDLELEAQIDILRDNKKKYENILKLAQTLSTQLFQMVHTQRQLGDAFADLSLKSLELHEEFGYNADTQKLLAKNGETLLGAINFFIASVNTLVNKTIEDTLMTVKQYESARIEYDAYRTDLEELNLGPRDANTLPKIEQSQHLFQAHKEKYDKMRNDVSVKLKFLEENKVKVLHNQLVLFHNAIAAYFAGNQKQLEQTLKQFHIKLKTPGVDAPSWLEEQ
UniProt P62330: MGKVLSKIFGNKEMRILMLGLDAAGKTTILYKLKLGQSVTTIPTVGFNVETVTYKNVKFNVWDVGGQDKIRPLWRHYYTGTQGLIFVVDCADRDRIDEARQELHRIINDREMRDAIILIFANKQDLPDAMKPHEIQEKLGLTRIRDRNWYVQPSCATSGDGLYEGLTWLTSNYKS

Experiments:
Experiment in all cases: log2 fold change, soluble protein after heating vs DMSO (PISA); higher = thermal stabilisation; K562 lysate, 10 uM; active = over 0.2 and 3.5 SD of the protein, either way, in both replicates (recomputed)
nilotinib = compound: Cc1cn(-c2cc(NC(=O)c3ccc(C)c(Nc4nccc(-c5cccnc5)n4)c3)cc(C(F)(F)F)c2)cn1 [nilotinib]
In short: (§1)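 Following dounce homogenisation of K562 pellets in PBS pH 7.4 with 1 mM MgCl2, crude extract at 1 mg/mL protein was incubated for 30 min with 10 μM compound. Aliquots were then heated for 3 min over 48°C-58°C and pooled, NP-40 was added to 0.5% at 4°C, and soluble protein was recovered as the supernatant at 21,000xg for 90 min. Channel-sum-equalised TMTpro 16plex LC-MS/MS quantified this protein. Each value, from duplicates, is a log-two fold change in thermal stability relative to solvent controls.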

[1] = compound: Cc1nc(Nc2n[nH]c3c2CN(C(=O)N[C@H](CN(C)C)c2ccccc2)C3(C)C)c2sccc2n1
In short: as §1

dasatinib = compound: Cc1nc(Nc2ncc(C(=O)Nc3c(C)cccc3Cl)s2)cc(N2CCN(CCO)CC2)n1 [dasatinib]
In short: as §1

[2] = compound: Cc1ncc(-c2ccnc(Nc3ccc(S(C)(=O)=O)cc3)n2)n1C(C)C
In short: as §1

[3] = compound: Cn1cc(-c2ccc3c(c2)CCN3C(=O)Cc2cccc(C(F)(F)F)c2)c2c(N)ncnc21
In short: as §1

quisinostat = compound: Cn1cc(CNCC2CCN(c3ncc(C(=O)NO)cn3)CC2)c2ccccc21 [quisinostat]
In short: as §1

tipifarnib = compound: Cn1cncc1[C@@](N)(c1ccc(Cl)cc1)c1ccc2c(c1)c(-c1cccc(Cl)c1)cc(=O)n2C [tipifarnib]
In short: as §1

[4] = compound: NC(=O)Nc1cc(-c2cccc(F)c2)sc1C(=O)N[C@H]1CCCNC1
In short: as §1

[5] = compound: NC(=O)c1cnc(N[C@@H]2CCCC[C@@H]2N)nc1Nc1cccc(-n2nccn2)c1
In short: as §1

[6] = compound: NC1(c2ccc(-c3nc4ccn5c(=O)[nH]nc5c4cc3-c3ccccc3)cc2)CCC1
In short: as §1

[7] = compound: NCC(=O)Nc1ccc(-n2nc(C(F)(F)F)cc2-c2ccc3c(ccc4ccccc43)c2)cc1
In short: as §1

vorinostat = compound: O=C(CCCCCCC(=O)Nc1ccccc1)NO [vorinostat]
In short: as §1

silmitasertib = compound: O=C(O)c1ccc2c(c1)nc(Nc1cccc(Cl)c1)c1ccncc12 [silmitasertib]
In short: as §1

[8] = compound: O=C1NC(=O)C(c2cnc3ccccn23)=C1c1cn2c3c(cc(F)cc13)CN(C(=O)N1CCCCC1)CC2
In short: as §1

entospletinib = compound: c1cn2cc(-c3ccc4cn[nH]c4c3)nc(Nc3ccc(N4CCOCC4)cc3)c2n1 [entospletinib]
In short: as §1

Measured: log2 fold change

ARVCF (UniProt O00192)
inactive: nilotinib -0.022 | [1] -0.032 | dasatinib -0.014 | [2] 0.004 | [3] -0.002 | quisinostat 0.105 | tipifarnib 0.069 | [4] 0.025 | [5] 0.024 | [6] -0.154 | [7] 0.034 | vorinostat -0.209 | silmitasertib 0.043 | [8] -0.051 | entospletinib -0.027

ARCN1 (UniProt P48444)
inactive: nilotinib -0.008 | [1] -0.03 | dasatinib 0.006 | [2] -0.014 | [3] 0.01 | quisinostat 0.002 | tipifarnib 0.016 | [4] -0.008 | [5] 0.004 | [6] 0.001 | [7] -0.003 | vorinostat 0.074 | silmitasertib 0.005 | [8] -0.019 | entospletinib 0.003

API5 (UniProt Q9BZZ5)
inactive: nilotinib 0.007 | [1] -0.021 | dasatinib -0.002 | [2] -0.017 | [3] -0.02 | quisinostat -0.043 | tipifarnib 0.015 | [4] -0.005 | [5] -0.021 | [6] -0.032 | [7] -0.004 | vorinostat 0.101 | silmitasertib -0.017 | [8] -0.018 | entospletinib 0.026

APIP (UniProt Q96GX9)
inactive: nilotinib 0.003 | [1] -0.002 | dasatinib -0.019 | [2] -0.001 | [3] -0.061 | quisinostat 0.016 | tipifarnib 0.015 | [4] 0.002 | [5] -0.035 | [6] -0.009 | [7] 0.015 | vorinostat 0.077 | silmitasertib 0.011 | [8] 0.014 | entospletinib -0.027

ARMC10 (UniProt Q8N2F6)
inactive: nilotinib 0.02 | [1] -0.084 | dasatinib -0.04 | [2] 0 | [3] -0.007 | quisinostat -0.012 | tipifarnib 0.079 | [4] 0.046 | [5] -0.025 | [6] -0.003 | [7] 0.015 | vorinostat -0.041 | silmitasertib -0.029 | [8] 0.021 | entospletinib 0.024

ARHGEF1 (UniProt M0QZR4)
active: vorinostat -0.392
inactive: nilotinib 0.009 | [1] -0.031 | dasatinib -0.058 | [2] -0.016 | [3] 0.022 | quisinostat -0.02 | tipifarnib 0.01 | [4] 0.015 | [5] 0.017 | [6] -0.015 | [7] 0.019 | silmitasertib 0.023 | [8] 0.004 | entospletinib 0.003

ARL3 (UniProt P36405)
inactive: nilotinib 0.02 | [1] -0.039 | dasatinib -0.009 | [2] -0.002 | [3] 0.014 | quisinostat 0.001 | tipifarnib 0.017 | [4] 0 | [5] 0 | [6] -0.005 | [7] -0.009 | vorinostat 0.067 | silmitasertib -0.032 | [8] -0.033 | entospletinib 0.013

ASAP1 isoform 2 (UniProt Q9ULH1)
inactive: nilotinib 0.041 | [1] 0.04 | dasatinib 0.005 | [2] -0.014 | [3] 0.057 | quisinostat -0.023 | tipifarnib -0.021 | [4] 0.03 | [5] 0.01 | [6] 0.004 | [7] 0.037 | vorinostat -0.055 | silmitasertib 0.01 | [8] -0.021 | entospletinib -0.017

ARHGAP18 (UniProt Q8N392)
inactive: nilotinib 0.019 | [1] -0.025 | dasatinib -0.047 | [2] 0.024 | [3] -0.02 | quisinostat -0.036 | tipifarnib 0.01 | [4] 0.011 | [5] 0.016 | [6] 0.021 | [7] -0.002 | vorinostat -0.103 | silmitasertib -0.007 | [8] -0.007 | entospletinib 0.027

ARHGEF6 (UniProt Q15052)
inactive: nilotinib -0.054 | [1] 0.018 | dasatinib -0.019 | [2] -0.116 | [3] 0.005 | quisinostat 0.009 | tipifarnib 0.134 | [4] 0.062 | [5] -0.048 | [6] 0 | [7] 0.018 | vorinostat -0.268 | silmitasertib -0.025 | [8] 0.001 | entospletinib 0.052

2 neighbouring records from above, for reference:
ASAP1 isoform 2 (UniProt Q9ULH1)
inactive: nilotinib 0.041 | [1] 0.04 | dasatinib 0.005 | [2] -0.014 | [3] 0.057 | quisinostat -0.023 | tipifarnib -0.021 | [4] 0.03 | [5] 0.01 | [6] 0.004 | [7] 0.037 | vorinostat -0.055 | silmitasertib 0.01 | [8] -0.021 | entospletinib -0.017

ARHGAP18 (UniProt Q8N392)
inactive: nilotinib 0.019 | [1] -0.025 | dasatinib -0.047 | [2] 0.024 | [3] -0.02 | quisinostat -0.036 | tipifarnib 0.01 | [4] 0.011 | [5] 0.016 | [6] 0.021 | [7] -0.002 | vorinostat -0.103 | silmitasertib -0.007 | [8] -0.007 | entospletinib 0.027

The results go on.

ARID1A (UniProt O14497)
inactive: nilotinib -0.013 | [1] 0.014 | dasatinib -0.028 | [2] -0.016 | [3] -0.005 | quisinostat -0.014 | tipifarnib -0.006 | [4] 0.013 | [5] -0.003 | [6] 0.002 | [7] -0.001 | vorinostat -0.1 | silmitasertib 0.007 | [8] -0.022 | entospletinib -0.015

APTX (UniProt Q7Z2E3)
inactive: nilotinib -0.025 | [1] -0.049 | dasatinib -0.037 | [2] 0.009 | [3] -0.06 | quisinostat -0.015 | tipifarnib 0.018 | [4] 0.017 | [5] -0.055 | [6] -0.012 | [7] 0.019 | vorinostat -0.23 | silmitasertib 0.045 | [8] 0.02 | entospletinib -0.098

ARL1 (UniProt P40616)
active: vorinostat -0.293
inactive: nilotinib 0.092 | [1] -0.074 | dasatinib 0.026 | [2] -0.118 | [3] -0.016 | quisinostat -0.082 | tipifarnib -0.268 | [4] 0.01 | [5] -0.001 | [6] 0.005 | [7] 0.017 | silmitasertib -0.048 | [8] 0.027 | entospletinib 0.034

ARHGAP12 (UniProt Q8IWW6)
inactive: nilotinib -0.055 | [1] -0.091 | dasatinib 0.072 | [2] 0.013 | [3] -0.035 | quisinostat -0.064 | tipifarnib -0.018 | [4] 0.034 | [5] 0.049 | [6] -0.174 | [7] 0.15 | vorinostat 0.09 | silmitasertib -0.067 | [8] 0.026 | entospletinib 0.024

APOC1 (UniProt P02654)
inactive: nilotinib 0.008 | [1] 0.034 | dasatinib 0.039 | [2] 0.01 | [3] -0.046 | quisinostat 0.068 | tipifarnib 0.242 | [4] -0.02 | [5] 0.018 | [6] -0.077 | [7] 0.061 | vorinostat 0.103 | silmitasertib -0.079 | [8] -0.028 | entospletinib -0.061

ARPC3 (UniProt O15145)
inactive: nilotinib 0.06 | [1] -0.046 | dasatinib 0.02 | [2] -0.046 | [3] 0.001 | quisinostat 0.078 | tipifarnib 0.054 | [4] 0.009 | [5] 0.002 | [6] 0.027 | [7] 0 | vorinostat 0.129 | silmitasertib -0.017 | [8] -0.014 | entospletinib 0.013

AP4S1 (UniProt Q9Y587)
inactive: nilotinib 0.182 | [1] -0.031 | dasatinib 0.044 | [2] -0.068 | [3] 0.012 | quisinostat 0.076 | tipifarnib 0.083 | [4] 0.005 | [5] -0.019 | [6] 0.065 | [7] -0.146 | vorinostat 0.058 | silmitasertib -0.03 | [8] 0.015 | entospletinib 0.055

APOB (UniProt P04114)
inactive: nilotinib -0.002 | [1] 0.022 | dasatinib -0.096 | [2] -0.017 | [3] -0.038 | quisinostat -0.092 | tipifarnib 0.033 | [4] 0.013 | [5] -0.035 | [6] 0.008 | [7] 0.063 | vorinostat 0.154 | silmitasertib 0.007 | [8] -0.012 | entospletinib 0.05

ARFRP1 (UniProt Q13795)
inactive: nilotinib 0.036 | [1] 0.014 | dasatinib -0.037 | [2] -0.042 | [3] 0.016 | quisinostat -0.022 | tipifarnib -0.1 | [4] 0.039 | [5] -0.022 | [6] -0.072 | [7] 0.068 | vorinostat -0.123 | silmitasertib 0.039 | [8] -0.037 | entospletinib -0.039

ARFIP1 (UniProt P53367)
inactive: nilotinib -0.057 | [1] 0.038 | dasatinib -0.002 | [2] -0.013 | [3] 0.082 | quisinostat -0.002 | tipifarnib 0.01 | [4] 0.011 | [5] 0.019 | [6] 0.045 | [7] -0.001 | vorinostat -0.21 | silmitasertib -0.014 | [8] -0.009 | entospletinib -0.001

ARF6 (UniProt P62330)
inactive: nilotinib 0.001 | [1] 0.029 | dasatinib -0.007 | [2] -0.009 | [3] 0.026 | quisinostat -0.04 | tipifarnib 0.011 | [4] 0.013 | [5] 0.069 | [6] 0.035 | [7] 0.034 | vorinostat -0.005 | silmitasertib 0.079 | [8] -0.032 | entospletinib -0.022
